For two substances, binding results are on record in PMC12963976.

By UniProt entry, the sequences of proteins in these tests, tags left out. Where a name states a change or a piece, a line headed by the entry shows the natural chain unless it says otherwise.
UniProt P15208: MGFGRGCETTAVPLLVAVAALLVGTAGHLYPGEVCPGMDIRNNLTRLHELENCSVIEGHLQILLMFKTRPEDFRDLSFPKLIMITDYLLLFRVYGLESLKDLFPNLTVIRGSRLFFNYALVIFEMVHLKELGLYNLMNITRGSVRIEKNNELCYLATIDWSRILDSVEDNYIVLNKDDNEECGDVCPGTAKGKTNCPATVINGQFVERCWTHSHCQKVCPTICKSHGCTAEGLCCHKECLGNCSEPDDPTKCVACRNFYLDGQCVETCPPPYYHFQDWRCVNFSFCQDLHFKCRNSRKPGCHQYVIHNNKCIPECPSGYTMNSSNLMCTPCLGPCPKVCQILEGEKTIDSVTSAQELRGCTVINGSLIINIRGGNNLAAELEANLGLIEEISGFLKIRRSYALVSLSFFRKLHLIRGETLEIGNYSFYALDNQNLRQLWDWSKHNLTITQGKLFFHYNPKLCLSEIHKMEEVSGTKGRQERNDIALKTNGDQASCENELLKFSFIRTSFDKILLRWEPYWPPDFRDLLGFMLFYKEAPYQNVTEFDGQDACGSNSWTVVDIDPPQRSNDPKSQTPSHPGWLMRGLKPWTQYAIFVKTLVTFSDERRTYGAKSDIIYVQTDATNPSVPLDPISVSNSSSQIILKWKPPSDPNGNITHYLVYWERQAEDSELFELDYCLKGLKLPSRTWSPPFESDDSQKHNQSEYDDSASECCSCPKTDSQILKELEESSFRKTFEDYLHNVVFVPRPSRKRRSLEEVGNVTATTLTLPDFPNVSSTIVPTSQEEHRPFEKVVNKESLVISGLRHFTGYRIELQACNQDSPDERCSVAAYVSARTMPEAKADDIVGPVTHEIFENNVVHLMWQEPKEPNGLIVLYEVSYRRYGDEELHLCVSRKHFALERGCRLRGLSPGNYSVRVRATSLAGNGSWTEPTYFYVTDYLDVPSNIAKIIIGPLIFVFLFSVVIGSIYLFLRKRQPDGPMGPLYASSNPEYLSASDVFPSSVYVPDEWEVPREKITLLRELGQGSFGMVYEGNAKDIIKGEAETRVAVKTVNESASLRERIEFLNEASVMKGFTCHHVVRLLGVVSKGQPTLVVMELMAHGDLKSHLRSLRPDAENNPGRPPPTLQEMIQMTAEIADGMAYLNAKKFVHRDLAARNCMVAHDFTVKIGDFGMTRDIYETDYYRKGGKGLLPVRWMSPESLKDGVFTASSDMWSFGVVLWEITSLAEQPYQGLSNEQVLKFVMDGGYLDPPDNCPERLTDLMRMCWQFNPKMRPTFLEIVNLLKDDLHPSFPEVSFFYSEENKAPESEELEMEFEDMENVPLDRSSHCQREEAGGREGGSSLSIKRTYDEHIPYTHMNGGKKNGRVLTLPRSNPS
UniProt P43276: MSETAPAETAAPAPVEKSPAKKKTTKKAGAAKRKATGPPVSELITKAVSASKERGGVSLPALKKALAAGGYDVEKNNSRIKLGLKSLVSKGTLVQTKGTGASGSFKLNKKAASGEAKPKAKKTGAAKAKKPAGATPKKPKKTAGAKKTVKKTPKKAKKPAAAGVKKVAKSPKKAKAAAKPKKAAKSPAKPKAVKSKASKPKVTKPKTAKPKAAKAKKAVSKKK
UniProt P07356: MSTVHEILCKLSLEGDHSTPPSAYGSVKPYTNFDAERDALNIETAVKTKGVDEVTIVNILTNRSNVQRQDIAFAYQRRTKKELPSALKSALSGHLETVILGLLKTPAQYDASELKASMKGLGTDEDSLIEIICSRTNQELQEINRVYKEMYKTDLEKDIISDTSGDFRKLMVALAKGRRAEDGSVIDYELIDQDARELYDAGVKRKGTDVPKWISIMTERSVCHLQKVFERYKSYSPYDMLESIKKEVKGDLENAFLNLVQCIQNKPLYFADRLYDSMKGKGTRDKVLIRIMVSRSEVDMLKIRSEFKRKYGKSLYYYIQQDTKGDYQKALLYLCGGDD

These are yes or no findings as the source states them, for the method shown. In cells and extracts the contact can be indirect. These calls come from enrichment with a bait or labelling near it, and not all partners need be listed.

This assay has as its target insulin receptor (INSR), endogenous in C2C12 myoblasts (mouse (endogenous in C2C12)) (UniProt P15208). The assay can be described thus: affinity purification with mass spectrometry; INSR immunoprecipitated from C2C12 myoblast lysates (RIPA buffer) with INSR-alpha antibody NNC0276-3000 covalently conjugated to Dynabeads M-270 Epoxy; cells serum-starved 6 h, then 0 or 2 nM insulin for 15 minutes; INSR knockout C2C12 cells as negative control; LC-MS/MS, MaxLFQ.

Consider “HIST1H1B (linker histone) (from UniProt P43276 1-223)”, for which the binding result is given as “binds”.
The same measure for “annexin A2 (ANXA2) (from UniProt P07356 1-339)”: “binds”.
